In all, about 53,000 sequences went through this assay and about 3,700 (7%) were called active.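 The calls were made as follows: active = gene knockdowns whose robust z-score for IL-1 alpha signal is at least 2 or at most -2, so actives lie on both sides; inactive = the rest.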 This is one part of the list.

The nature of this test: Components of the Cytosolic LPS Sensing Pathway: Gene Identification via Genome-wide siRNA Screen.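 Also: robust z of the log signal after scaling to non-targeting control siRNA wells of the plate.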 The note with it: RAW264.7 macrophages, IL-1a HTRF, actives lie on both sides, screened at 100 nM (by protocol), cells primed 5 h with Pam3CSK4 first. In a few lines:
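IL-1a HTRF of supernatants after 24 hour LipidA transfection of Pam3CSK4-primed (5 hours) RAW264.7 cells, 48h post-siRNA transfection (100 nM). Scores: percent of plate negative-control median, then log-based robust z-score.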
Background: TR-FRET usually uses a lanthanide donor and a delayed reading to cut background.
As for GCAAAUUAUUGAGAGCCUGTT against Prl2a1, the z-score was inactive: 1.01.
With GCUUGCCUGACCUGAAACATT against Apool, the z-score is active: -2.38.
In the case of GGUUGACUUUGUAACUCAATT against Agk it was inactive: -0.283; in that of GGAAGGAAGCUAAAAAACGTT against Gnl3, active: 2.24.
For CGUGGUCCUCGAUAACAAATT against Trak1, the z-score was inactive: 1.03.
For the sequence CCUGCCUAUUGUUUCAGAATT against Ifna11, the z-score was inactive: 0.239.
In the case of GCUCAAGUGGGCCUUUAGCTT against Hpcal1 it was inactive: 0.2; in that of GGAUGAACAAAAUAAGACUTT against Gm5087, inactive: 0.643; in that of GGAGAAUCAGUAUUCCAUATT against Tmem44, inactive: 0.748.
In the case of CGACAACCAAAUCAUCACCTT against Gnb2 it was inactive: -0.341; in that of GCUAUAAGGCUUAAUAGGGTT against Dleu7, inactive: 1.97.
Consider GGCCCAACACCAUGAACAATT against Ogfod2, for which the z-score was inactive: -0.978.
As for GGGAUACUCCAGACAAGGUTT against Usp17ld, the z-score was inactive: 0.142.
In the case of GGGCAAGGAUUCUUUGUAUTT against Rpl36a it was inactive: -1.14; in that of GGAGGAGGAGCUGAAGAAATT against Atp12a, inactive: -0.679.
With GGGCUUUGUUCGUGGUACATT against Zfp607b, the z-score was inactive: 0.0654.
In the case of GCCAGUGUGUAUCAAAAAATT against Elof1 it was inactive: -0.5; in that of GGCCGCCCUAAAAAGAAGCTT against Olfr95, inactive: 1.29.
Take GGAUUUGUUAACCAGACAUTT against Cab39l: the z-score was inactive: -0.0191.
In the case of GCGGUGUGUUUCAAUAGUUTT against Clec4n it was inactive: 0.919; in that of GCGAUUGAAAACAUACUUCTT against Chst10, inactive: 0.497.
With GGAUGAACAUUCUGGAAAUTT against Aggf1, the z-score is inactive: -0.493.
Regarding GGAGAACAAAACCUCAGGATT against Hoxb7, the z-score is inactive: -0.432.
In the case of GUAUGCUAGCAUGAUCAACTT against Ndufa3 it was inactive: 1.05; in that of GGAUAUGGAUUCUCCCGAUTT against Krtap19-5, inactive: -0.219.
For GGAGAAGAAGGUGAAGAAGTT against Ppp1r3b, the z-score is inactive: -0.775.
With GGUCAUCAAACACAAUUUATT against Prlr, the z-score was inactive: -0.356.
With “GGCCCAUUGUUUGAGCCCATT against A530013C23Rik”, the z-score was inactive: -0.961.
As to GGGAAAAAUGGCCUUUCUGTT against Kndc1, the z-score was inactive: 1.96.
In the case of GGAGAUUUAACUGAAAGACTT against Zfp410 it was inactive: -0.0134; in that of GCUAUGCUGAGGAAAAAAATT against Higd1b, inactive: 0.0931.
On to GAGUCACAUGUACCUGGCCTT against Bricd5, for which the z-score was inactive: 0.523.
Regarding GCUCUGAUUCAGCAAGAGUTT against Rsph6a, the z-score is inactive: -0.128.
As to UGGCGAGAUCGGCAUUGGUTT against Ren2, the z-score was inactive: -0.319.
GGAAGUGCUAUUAAUUGUUTT against Gm9725: the z-score is inactive: 1.01.
For GGAGUUUUCAAUUUUGAUGTT against Il17rb, the z-score was inactive: -0.2.
GGAGUUAACAAGAUGAGCGTT against Arhgap24: the z-score was inactive: -0.0398.
Consider GGAUUAUGUCAAGGUCAAATT against Ntng2, for which the z-score is inactive: 0.227.
With GCUACCAUGAGAUUUCUAATT against Dido1, the z-score was inactive: -0.321.
In the case of GGACAUGGUGUUGUGCUAUTT against Myt1l, the z-score is inactive: -0.988.
As to GGAGUACGAAGACUUCUCUTT against Ankrd33b, the z-score was inactive: -1.95.
Turning to GGAGCUCUACAUCAUAGACTT against Lhx1, the z-score is inactive: 0.579.
With GGAAGAUUUUUCAAAGGAUTT against Itgb6, the z-score is inactive: -0.325.
Turning to UCCCUAUCACUUGAGUUUUTT against Pgbd1, the z-score is inactive: 0.831.
For GGGAUUUCACCACAGACAGTT against Gtf2a1, the z-score was inactive: -0.993.
In the case of GGCUUACUUACCACAGAAUTT against Mlycd, the z-score was inactive: -1.51.
With GCCAGGAAACGACAAUAAATT against Slc5a11, the z-score is inactive: 0.731.
In the case of GAACAAAUGAGGUCCUCAGTT against Sprr2h it was inactive: -1.11; in that of CGAUGAAUUUAGGAGAUCUTT against Sugct, inactive: -0.249; in that of GGUGCCUUUCAUUUUUAACTT against Lamp2, inactive: 0.0373.
As for GGCCAGACACAGGUAGACATT against B9d2, the z-score was inactive: -1.85.
In the case of CCAAGUUCAUUCUUUUUGCTT against Cobll1 it was inactive: 1.2; in that of GCCUUUGAUCUGAUGCACUTT against Adh5, inactive: 0.374.
Turning to GGAAAACACGAGUUUCCCUTT against Arrdc4, the z-score was inactive: 1.56.
Take CCUAUAUGCCAAUCUUUCUTT against Rnf152: the z-score is inactive: 0.174.
Take GUGGCAAGAUGUGAGACUUTT against Rpl4: the z-score is inactive: 0.343.
On to “CCAGGCCAAAUCUCACAAUTT against A730008H23Rik”, for which the z-score is active: -2.2.
Turning to GGAUGGAUUACUGAAAGUUTT against Wdr35, the z-score is inactive: 0.715.
With GCUGCUGUGACUUAGAUAATT against Cds2, the z-score is inactive: -0.668.
Turning to GGAGAAGAGGAAAAUGCGUTT against Prr15, the z-score was inactive: 0.411.
With GGUCUGAUUGUCCUCUCUUTT against Slc35b4, the z-score was active: 3.25.
Take “GGAUUCUUCAUCCCUAAAUTT against 4930470P17Rik”: the z-score was inactive: 0.126.
In the case of CGCAGCGACCAGCUUUCAATT against Srebf2 it was inactive: 0.789.
In the case of GCUGUGAGCGGUGUAAGAATT against Usp20 it was inactive: -0.804; in that of GGAAAGAUCUCCUAAAAUUTT against Lrp6, inactive: 0.412.
As to GCAUUUCAGCAGAACAAUATT against Phldb1, the z-score was inactive: 0.5.
In the case of GCUGCCUCUUUCUUUGCUUTT against Pllp, the z-score was inactive: -0.769.
In the case of GGGAUAAUGAUGCAACUAATT against Tas2r137 it was inactive: -1.78.
